# Measured values published in PubChem BioAssay AID2517 (National Center for Advancing Translational Sciences (NCATS), 2010).
# Chains of the proteins cited; added tags and fusions are not shown.
# UniProt P27695, whole entry, looked up: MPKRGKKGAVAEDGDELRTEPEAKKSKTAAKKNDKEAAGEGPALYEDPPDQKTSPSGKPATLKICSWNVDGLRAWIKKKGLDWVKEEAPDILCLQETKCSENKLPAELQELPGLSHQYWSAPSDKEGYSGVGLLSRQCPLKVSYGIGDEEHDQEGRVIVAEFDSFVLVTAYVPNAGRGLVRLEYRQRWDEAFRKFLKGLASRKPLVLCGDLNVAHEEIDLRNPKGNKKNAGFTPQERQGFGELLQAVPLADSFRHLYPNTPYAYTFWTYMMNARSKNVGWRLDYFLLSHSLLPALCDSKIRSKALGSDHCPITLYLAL
# “And” between values parts separate entries of the source, which are not always exact repeats. Identical values can stand only once. The whole screen tested about 350,000 compounds, of which about 1,200 (0.34%) were called active. Inconclusive means that the source gave no clear call. Such entries were picked first, then a sample of the others. The call rests on the fitted dose curve; in most records, active means well fitted inhibition curve with a large enough effect; inconclusive means small, poorly fitted or top-dose-only effect; inactive means no such curve, though single readings can be large or run the other way. Potencies beside an inconclusive call are fits to weak or partial responses and may not hold up.
# Target: DNA repair nuclease/redox regulator APEX1 (Homo sapiens) (UniProt P27695)
# Assay: qHTS Assay for Inhibitors of the Human Apurinic/apyrimidinic Endonuclease 1 (APE1); further: nearly all actives have a fitted effect of over 55% in size;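 on activity change, negative = inhibition: plate controls were vehicle for no effect and reference inhibitor for full effect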
# Conditions: recombinant APE1, TAMRA/BHQ-2 abasic DNA cleavage fluorescence; activity change, negative = inhibition: at 65.8 µM (top of the series)
# Procedure, shortened: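 Activity was derived from the fluorescence gain between first and third kinetic reads (60 s intervals, ex 525/em 598 nm) after 50 nM THF-abasic TAMRA/BHQ-2 duplex was added to 0.75 nM APE1 preincubated 15 min with compound.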
# Potency means the concentration at half of the fitted maximal effect.
Compound,Potency,"activity change, negative = inhibition"
O=C(NCc1ccc2[nH]c3c(c2c1)CCCC3)c1ccc(S(=O)(=O)N2CCCCC2)cc1,"inconclusive: 3.16 µM [inhibitor, partial curve]",–
COc1cc2c(cc1OC)CN(S(C)(=O)=O)CC2,"inconclusive: 0.631 µM [inhibitor, full curve]",–
CCOC(=O)N1CCC(NC(=O)c2cc3c(=O)[nH]c4ccccc4c3n2C)CC1,"inconclusive: 25.1 µM [inhibitor, partial curve, poor fit]",–
CC(C)(C)N1C(=O)[C@H]2[C@H]3[C@H](O)[C@H](O)C/C(=N/NC(=O)OCc4ccccc4)[C@@H]3CC[C@@H]2C1=O,"inconclusive: 3.16 µM [inhibitor, single point]",–
O=C(NNC(=O)c1ccccc1Br)c1ccc2nc[nH]c2c1,"inconclusive: 23.8 µM [inhibitor, single point]",–
COc1ccc(C)cc1NC(=O)CSc1nnc(COc2ccc(C)cc2)n1Cc1ccco1,"inconclusive: 44.7 µM [inhibitor, single point]",–
O=C(CSc1ccsc1[N+](=O)[O-])NCc1ccccc1,–,inactive: 4.36%
CCn1c(=N)c(C(=O)NCCCOC)cc2c(=O)n3cccc(C)c3nc21,"inconclusive: 5.62 µM [inhibitor, full curve, poor fit]",–
Cn1c(SCC(=O)NC(=O)Nc2ccccc2)nnc1-c1ccncc1,"inconclusive: 3.16 µM [inhibitor, partial curve]",–
CO[C@@]1(NC(=O)Cc2cccs2)C(=O)N2C(C(=O)O)=C(COC(N)=O)CSC21 (stereo not given in full),–,inactive: -6.15%
Cc1cccc(NC(=O)C2CCN(c3ncnc4c3nc3n4CCCCC3)CC2)n1,–,inactive: 2.25%
O=C(CCCC(=O)c1ccc(F)cc1)c1ccc(F)cc1,–,inactive: 3.37%
CCOCCCNC(=S)Nc1ccc2nc3n(c(=O)c2c1)CCCCC3,–,inactive: 8.22%
O=C1CCNc2c(Cl)cc(Cl)cc21,–,inactive: -0.885%
O=c1c(O)c(-c2ccc(O)cc2)oc2cc(O)ccc12,"inconclusive: 31.6 µM [inhibitor, partial curve]",–
OC(CN1C2=NCCN2c2ccccc21)c1ccc(Br)cc1 (stereo not given),"inconclusive: 39.8 µM [inhibitor, single point]",–
CCn1c(CNc2nc(-c3ccccc3)cs2)nnc1SCC(=O)NCc1ccco1,"inconclusive: 39.8 µM [inhibitor, single point]",–
CC(OC(=O)/C=C/c1ccco1)C(=O)Nc1cccc([N+](=O)[O-])c1 (stereo not given),"inconclusive: 35.5 µM [inhibitor, single point]",–
N#Cc1c(-c2ccco2)cc(-c2cccnc2)nc1N,"inconclusive: 31.6 µM [inhibitor, single point]",–
C=CCNc1ncnc2c1[nH]c1ccc(Cl)cc12,"inconclusive: 15.8 µM [inhibitor, partial curve]",–
COc1ccc(-c2nnc3ccc(SCC(=O)NCc4ccco4)nn23)cc1,"inconclusive: 39.8 µM [inhibitor, single point]",–
O=C(NCc1ccccc1)C(C(=O)c1ccc(F)cc1)n1ccccc1=O (stereo not given),"inconclusive: 10 µM [inhibitor, partial curve, poor fit]",–
C/C(CCN1CCCc2nc(C)c(C)cc21)=N\O[C@@H](C)c1cn([C@H](CO)Cc2ccccc2)nn1,"inconclusive: 5.62 µM [inhibitor, single point]",–
COc1c(C)cc(Br)cc1C(=O)NC(=S)Nc1ccc(Cl)c(C(=O)O)c1,"inconclusive: 44.7 µM [inhibitor, single point]",–

Compound,Potency,"activity change, negative = inhibition"
O=C(Nc1ccccc1)Nc1nc(-c2ccc(Cl)cc2)cs1,"inconclusive: 7.08 µM [inhibitor, full curve, poor fit]",–
O=c1ccc2cc(O)c(O)cc2o1,inactive,–
O=C(Nc1cccnc1Cl)c1ccc(=O)oc1,active: 31.6 µM,–
Cc1nn(C)c(C)c1CS(=O)(=O)c1ccccc1,"inconclusive: 8.91 µM [inhibitor, partial curve, poor fit]",–
O=[N+]([O-])c1ccc(S(=O)(=O)N/N=C/c2ccco2)cc1,"inconclusive: 31.6 µM [inhibitor, single point]",–
CC(=O)N1CCc2c(sc3c2c(=O)n(-c2ccccc2)c(=O)n3Cc2ccccc2Cl)C1,"inconclusive: 44.7 µM [inhibitor, single point]",–
O=C(N/N=C/c1cccc2nccnc12)c1ccccc1O,–,inactive: 4.64%
CC(=O)Nc1ccc(S(=O)(=O)N(C)c2ccc(OCCOc3cccc(C)c3)cc2)cc1,"inconclusive: 16.8 µM [inhibitor, partial curve]",–
COc1ccc(/C=C(\NC(=O)c2ccc(OC)cc2)C(=O)NC(CCSC)C(=O)O)cc1 (stereo not given),–,inactive: -1.18%
Fc1ccc(NC(=S)NN2CCOCC2)cc1Cl,"inconclusive: 0.224 µM [inhibitor, full curve]",–
C=CCN(CC=C)C(=O)Cc1ccc(F)cc1,–,inactive: 4.95%
CCCCC/S(CC1CC1(Cl)Cl)=N\S(=O)(=O)c1ccc(C)cc1 (stereo not given),"inconclusive: 28.2 µM [inhibitor, single point]",–
NC(=O)c1ccc[n+]([C@@H]2OC(COP(=O)([O-])OP(=O)(O)OCC3OC(n4cnc5c(N)ncnc54)C(OP(=O)(O)O)C3O)C(O)C2O)c1 (stereo not given in full),"inconclusive: 12.6 µM [inhibitor, partial curve]",–
CCOC(=O)c1c(NC(=O)CN2C(=O)NC(C)(c3ccc(Cl)cc3)C2=O)sc(C(=O)NC)c1C (stereo not given),"inconclusive: 39.8 µM [inhibitor, single point]",–
COc1ccc(C2CC(c3ccccc3)Oc3cc(OC)c(OC)c(OC)c32)cc1 (stereo not given),"inconclusive: 25.1 µM [inhibitor, single point]",–
Cc1nn(C)c(Sc2ccccn2)c1[N+](=O)[O-],"inconclusive: 7.94 µM [inhibitor, single point]",–
Cn1ccnc1SCC(=O)Nc1ccc2c(c1)OC(F)(F)O2,"inconclusive: 0.199 µM [inhibitor, full curve]",–
O=C(N/N=C/c1cccnc1)C1CCCCC1,"inconclusive: 35.5 µM [inhibitor, single point]",–
NC(=O)c1cn(Cc2c(F)cccc2F)nn1,"inconclusive: 4.47 µM [inhibitor, single point]",–
C[C@H]1Cc2c(COc3ccccc3)nc3c(c2CO1)CN(C(=O)c1cccnc1)CC3,–,inactive: -2.38% [at 12.4 µM]
COc1ccccc1N1CCN(C(CNS(=O)(=O)c2cc(F)ccc2F)c2cccnc2)CC1 (stereo not given),"inconclusive: 1.26 µM [inhibitor, full curve, poor fit]",–
O=C(O)CSc1nc2sc3c(c2c(=O)n1Cc1ccccc1)CCCCC3,–,inactive: 20.6%
CCN(Cc1ccccc1)S(=O)(=O)c1ccc(C(=O)Nc2nnc(C3CC3)o2)cc1,–,inactive: 10.2%
CCOC(=O)C(C)On1c(-c2ccccc2)nc2ccc([N+](=O)[O-])cc21 (stereo not given),–,inactive: 9.1%

Compound,Potency,"activity change, negative = inhibition"
CCN(CC)c1ccc(/C=N/Nc2nc3ccccc3[nH]2)c(O)c1,–,inactive: -1.89%
COc1ccccc1CNC(=O)CN(C)CC(=O)Nc1cccc(F)c1,"inconclusive: 44.7 µM [inhibitor, single point]",–
C=C(C)C(=O)Nc1cccc(C2=NOC3(C2)C[C@@H](C(N)=O)N(C(=O)CCCCC)C3)c1 (stereo not given in full),"inconclusive: 12.6 µM [inhibitor, partial curve]",–
COc1ccc(NC2CCCN(C(=O)CCN3CCOCC3)C2)cc1 (stereo not given),–,inactive: 65.3%
COCCCNC(=O)Cn1cc2c(n1)CCCCC2,"inconclusive: 44.7 µM [inhibitor, single point]",–
Oc1ccc(NC(=S)Nc2ccccc2)cc1,"inconclusive: 4.47 µM [inhibitor, full curve] and inconclusive: 7.94 µM [inhibitor, single point]",–
Cc1cccc(N(C)c2cc(C)nc3ncnn23)c1,–,inactive: 0.227%
CN(Cc1cccs1)C(=O)Cn1cnc2cc([N+](=O)[O-])ccc2c1=O,"inconclusive: 44.7 µM [inhibitor, single point]",–
O=c1cnnc(N/N=C/c2ccccn2)[nH]1,–,inactive: 1%
COC(=O)N/N=C1/C/C(=N\NC(=O)OC)c2ccccc21,"inconclusive: 20 µM [inhibitor, partial curve]",–
O=C1/C(=C/c2ccco2)CCC1C1CCCC1 (stereo not given),–,inactive: 1.7%
O=C(CSCc1cccc(Br)c1)N=Nc1c(O)[nH]c2ccccc12,–,inactive: 5.7%
O=C1NC(=Nc2ccc(Cl)cc2)/C(=C/c2ccco2)S1,"inconclusive: 3.98 µM [inhibitor, full curve]",–
CCOc1cc(CNc2ccc(O)cc2)ccc1OCc1ccc(Cl)cc1Cl,"inconclusive: 17.8 µM [inhibitor, single point]",–
O=C(O)c1ccc(COCC(F)(F)C(F)F)o1,"inconclusive: 39.8 µM [inhibitor, partial curve]",–
COC(=O)[C@]1(Cc2ccccc2)N[C@H](CN(C)S(=O)(=O)c2ccc(-c3ccccc3)cc2)[C@@H]2C(=O)N(Cc3ccccc3)C(=O)[C@@H]21,–,inactive: -5.65%
CCc1ccc(OCc2ccc(C(=O)O)o2)cc1,–,inactive: 61.5%
CC(=O)N(C(C)=O)N1C(=O)c2cccc3c(N4CCOCC4)ccc(c23)C1=O,–,inactive: 1.11%
COC(=O)[C@@]1(Cc2ccc(OC)cc2)[C@H]2c3cc(C(=O)N4CCCC4)n(C[C@H](O)CO)c3C[C@H]2CN1C(=O)c1ccccc1,–,inactive: -3.52%
Cc1cccc(C)c1OCC(C)N (stereo not given),inactive,–
O=c1c2ccccc2nc2sc(Nc3ccc(F)cc3)nn12,"inconclusive: 26.7 µM [inhibitor, partial curve]",–
CCOC(=O)C1=C[C@@H](C(=O)OCC)[C@@H]2C3=C(C(=O)C2(C)C)[C@H](c2ccccc2)[C@@H]2C(=O)N(c4ccccc4)C(=O)[C@@H]2[C@@H]3C1,–,inactive: -0.911%
